Laboratory results from the supplement of paper PMC3334620.
Whole data set: some 33,000 sequences, median “E-score (-0.5 to 0.5)” near -0.0034, cut for the highest 2% near 0.25. The list shows a part of the results.

What follows are sequences tested against T1, Yap3 (UniProt P38749) (assay: PBM E-score (8-mer binding enrichment) (E-score (-0.5 to 0.5)); higher = stronger / more preferred TF binding). Details: protein concentration: 100 nM; construct: GST-full length.
T1 sequence: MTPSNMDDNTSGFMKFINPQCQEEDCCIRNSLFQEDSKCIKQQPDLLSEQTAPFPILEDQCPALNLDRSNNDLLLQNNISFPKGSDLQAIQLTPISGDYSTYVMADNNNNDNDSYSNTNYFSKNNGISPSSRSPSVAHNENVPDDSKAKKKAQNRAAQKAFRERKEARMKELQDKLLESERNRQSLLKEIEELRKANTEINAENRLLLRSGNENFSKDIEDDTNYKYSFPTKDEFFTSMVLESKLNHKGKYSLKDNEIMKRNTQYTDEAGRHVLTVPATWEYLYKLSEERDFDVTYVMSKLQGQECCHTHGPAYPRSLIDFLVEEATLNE
Outline: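 Detection of bound protein used fluorescent anti-GST, with scans normalised by masliner. The proteins were GST-tagged yeast transcription factors applied at about 100-200 nM to universal all-10-mer Agilent arrays made double-stranded by primer extension. Each ungapped eight-base word, pooled with its reverse complement, was scored with an E-score from the Universal PBM Analysis Suite.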

Sequence	PBM E-score
GTCAAGGA	-0.151
CCCAGCAA	-0.138
GCTAACCC	-0.168
GATTTCTA	0.115
AGTTGACC	0.0115
CCAGAGAC	-0.0324
CATTGCAG	0.00712
CGACGGTA	0.157
CGGGACAA	-0.195
AATTACAT	0.229
GTTGGTGA	0.13
ATTTGAGG	-0.078
GGTCACTA	-0.105
CAGATGGC	-0.0154
ACATGAAA	0.0243
CATATGGC	0.0183
GGCACCAA	-0.0285
ATTCGGAC	0.214
GATGTAGA	-0.0207
GGTCTACA	-0.0981
AAAGCTCG	-0.0592
GTAAATGA	0.169
AACGCAAC	0.21
ACTAATAT	0.301
ATCGGTCG	0.0365

Sequence	PBM E-score
TCTCGGAA	-0.0419
CATTCGAG	0.0517
AATTAAGG	0.0609
CCGTGTGA	-0.0103
CGTGCAGA	-0.0695
AGCCAAAG	-0.0605
AAGAACCA	0.0613
AATACGCT	0.121
AATTCAGT	-0.00871
CAGGGAAC	-0.0715
TGCGACCA	0.115
GGCTCCGA	-0.0527
AAATGTGC	0.197
CATAATTC	0.23
ACGAGTCA	-0.168
AAATGTAC	0.174
GCCCACGC	-0.141
CGTCTTCA	-0.0385
ACGGGTGA	-0.038
AGTGATCC	-0.0505
TAAACTAA	0.282
CGAAGAAA	0.136
GCTGTTTA	0.142
GATCCACA	-0.0248
AAATTCCG	0.205

Looked up above:
For PBM E-score, AAATTCCG has 0.205
For PBM E-score, CATTCGAG has 0.0517

(continued)

Sequence	PBM E-score
TGCCGGAA	-0.0251
CCTCTCCA	-0.372
CAGAATGC	0.0227
AGCCGGTC	-0.191
ACACTATC	0.165
GACGACTA	-0.0185
TCACACCA	0.0958
CGTAGTGC	-0.0356
CCGTGGTC	-0.202
GGAAGCCA	-0.193
CCGCACCA	-0.164
CAGATAGA	-0.0499
CCGAGCAA	-0.0253
GATATGCC	-0.0864
CGAGAACA	-0.0697
CCCCAGTA	-0.148
GTCTTAAC	0.0396
CAATTTAC	0.175
CCGGGAGA	-0.159
ATAGGCTC	-0.00307
CCAAGAGC	-0.103
CCGAAACG	-0.136
ACGCCCCA	-0.0847
CTTCTTGC	0.1
CGGCGGAC	-0.176

Sequence	PBM E-score
GGGAAGCA	-0.178
ACACTGGC	-0.0732
CGCCAGCC	-0.134
ACAGTTCC	-0.00592
AAGACAAT	0.204
CCTTCTAC	0.0294
AATGTACG	-0.0174
AGTATAGA	0.149
CGCGGCCG	-0.236
GTGCTTCA	0.155
AATGCCCA	-0.0376
GCAACTGC	0.0795
CCAGAGAA	0.0294
ACTTGGGG	-0.104
GACAAACC	0.0467
CAAAAAAC	0.151
ACAATAAG	0.0953
GCCCATTA	-0.0925
ATCTCGGC	-0.0346
CGTTCCAG	-0.0295
TACAGAGA	-0.0777
AGCTTACT	0.0983
TACGAAGA	0.107
AGCTTAGA	0.109
AGGTGATA	0.0445

Sequence	PBM E-score
CGTCAACA	0.0161
CAAGAGTG	-0.0802
CACCCGGG	-0.216
CCAGAAAG	-0.0181
AAGGCAGC	-0.0167
ACATATTG	0.11
CGGGAGCC	-0.193
CCTGTCCG	-0.0639
ACCCAAAG	-0.117
GTGTAGCA	-0.109
CCTGCTTC	-0.175
CATATGCA	0.118
GTGCAAAC	-0.0512
GGAAGGCC	-0.374
CATAATGA	0.118
GGGCCCGA	-0.255
CCTTGTAG	-0.276
ATTCGGAG	0.00518
TATTTACA	0.158
CTCCCCCC	-0.293
ATCGACTG	0.0906
AGCTCTTC	0.0209
GAAGTCAC	-0.126
CTCTCAAG	-0.0909
ATTGTGCA	0.164

Sequence	PBM E-score
ATCAATCG	0.146
CCGGGCAC	-0.3
AGGCACCC	-0.188
CAGCAACA	0.208
CGATGGTC	-0.111
AACGGGTG	-0.00393
CCCCGGCG	-0.254
ACCCGCTG	-0.175
CTCCGACC	-0.292
AAAGCTCC	-0.102
AACACTCC	-0.0127
AACGTAGA	0.169
CTCTTGCC	-0.0695
ATCCGCAA	-0.00691
CAACTCCG	-0.073
AGCTAAGC	-0.223
AATTTGTC	0.138
ATGCTCTA	-0.128
CGGGTGAG	-0.136
TATAAGAA	0.0736
CCTGCCAC	-0.111
TCCGACAA	0.0797
CTTTTCGC	0.0914
TCAAAACA	0.194
CGGTGTCA	-0.141

Sequence	PBM E-score
ACTAGATG	0.0209
GAATGAAA	0.157
CTTATAAG	0.0276
CATTCGAA	0.161
ATGGTCTG	-0.00164
GATGGGAC	-0.196
GATGTAAC	0.0665
ATTCGTTG	0.17
GCTTACCC	-0.0567
AAGTATGC	-0.046
ATATTTCG	0.141
AAACGGGC	0.0931
TCACTCAA	0.00948
ATGCCGTC	-0.0725
GCTTAATA	0.17
CCTTGCAA	-0.059
GCTGTGAA	0.101
TATGCTCA	0.159
ATGTCCAA	0.0696
TGCGTAAA	0.132
AGTAGTCG	-0.00146
ATTCAAAC	0.109
ACGGGAGA	-0.0795
ACAGGTTA	0.00932
CCCAACCA	-0.0429

Reformatted as a markdown table: part of the list above.

| Sequence | PBM E-score |
| --- | --- |
| CGTAGTGC | -0.0356 |
| CCGTGGTC | -0.202 |
| GGAAGCCA | -0.193 |
| CCGCACCA | -0.164 |

Next part

Sequence	PBM E-score
AATTTTAT	0.266
CACCATTC	-0.0305
ACCAATGA	0.0693
AGGAGTAC	-0.0964
ACCGGGAC	-0.162
GTGACGAA	0.0395
CCCAAGGG	-0.327
AATAAGAG	0.195
AGTCCGAA	-0.0167
ATAGTTGG	0.00071
CCCCACCG	-0.223
GATATTGC	0.0968
CGGGCATC	-0.172
CGGAAGTA	0.00202
GATAATAA	0.113
CCGTAGAG	-0.111
ATGCCCAG	-0.24
CGCTAAAC	-0.0491
CAGTAAGC	0.0593
AGGTGCCG	-0.101
GCCGAAGC	-0.186
AATTCATC	-0.0039
GTTCACCA	-0.0756
GCGAAGAC	-0.0705
CGTTCTTC	0.0864

Sequence	PBM E-score
GAAAACCC	-0.0324
AATGAGCA	-0.00708
AGCCCCAG	-0.212
ATACGTCA	0.0839
AAACTTGC	0.0571
ATGTTCTA	0.11
ACCTCCCA	-0.215
AGCGGTCG	-0.334
AAAGGTGT	-0.1
CAGGACTC	-0.189
AATTGACT	0.162
CCCCAGAG	-0.379
ACCCACTC	-0.167
AAGGCATT	-0.147
CCTTATTA	0.33
CGTGTCAC	-0.0465
GACGACGC	-0.186
ATCGGCCA	-0.142
ACCAGCCA	-0.203
CACGTACC	0.0369
CCGTCGGA	-0.0293
GCACTAGC	-0.087
CCGCCCTC	-0.188
GACCAATA	0.142
AGTGCCAT	-0.101

Some of the entries so far, bar-delimited.
Sequence | PBM E-score
CCCCAGAG | -0.379
ACCCACTC | -0.167
AAGGCATT | -0.147
CCTTATTA | 0.33
CGTGTCAC | -0.0465
GACGACGC | -0.186

Next part:

Sequence	PBM E-score
GGCTGCTA	-0.15
CTAGCTGC	-0.275
ACCATGCT	0.0204
CAAGTTTC	0.0467
GACTGACC	-0.291
ACCCACAA	0.21
TCCATTCA	0.105
CAACTCGG	0.00157
AGAGCAGC	-0.166
TAAAATGA	0.23
CCAGTGGC	-0.168
CTATTACC	-0.0641
ACGGGTAC	-0.0155
GGGCTGAC	-0.0608
AAGTAGAG	-0.0212
AGCTTCTA	-0.1
AATAAGTG	0.164
ACACATCT	0.00363
CCCACTAA	0.0778
AAGGTCGG	-0.12
ATGACCCC	-0.116
TACCAGAA	0.168
AGAAATGA	0.0784
ACCGACTC	0.0227
CGTTCGAC	-0.105

Sequence	PBM E-score
ATTCAATG	0.123
AAATGGCT	0.102
AAGGTTAC	0.0766
CTTGTACC	0.0474
GCTTTCCC	-0.175
CGGGTGTA	-0.0717
TACAGCGA	-0.0354
TGCATGCA	0.0727
AGCTCGTA	0.00077
ATCGTCTC	0.0144
ACTACTAC	0.0925
CCCTAGCC	-0.156
CTTTAGGC	-0.187
ACGTACAA	-0.0101
CGTGGCAC	-0.201
CCCAGCTC	-0.117
GAATCCTC	-0.231
CAGAGTCC	-0.0676
ATGGGAGG	-0.0823
ATGACGCA	0.242
CTCAACGA	-0.116
GCCCGGCA	-0.236
ACTACATG	0.169
ATTTCATA	0.239
CGCGGCAA	0.0359

Sequence	PBM E-score
GTACTTGA	-0.0479
CCTCGTAG	-0.00114
ACAAAGAG	-0.0685
CAGTCGGC	-0.142
CGGATACG	-0.0544
ATCTACGG	0.0515
GTCAGGCA	0.00699
AGCTCACT	-0.136
CCAGCCAA	-0.108
CGTGTTGA	0.0539
CTTAACGA	0.0474
AGCTATCG	-0.116
AGTTCGTG	-0.0413
CGTTGCTA	0.0356
TCAATGAA	0.152
AGACATAG	0.106
ATTGCGCC	-0.0487
AGCGGCTA	0.00707
CAGTCAAG	0.00536
GCACCTAC	-0.232
TAGACCAA	0.111
GGATCCCA	-0.17
CTATGTGA	0.0318
CGAACATA	0.185
AGAACACA	0.0259

Sequence	PBM E-score
AGGTTAGC	-0.136
AAAAAATC	0.205
CAGTGATG	0.0336
ACCTTCTC	0.106
ACCTGCCG	-0.132
CCGCTGAG	-0.0958
GGGGGGAC	-0.471
ACTTGGAC	0.0823
AGTTGCCC	-0.089
ACATTGAT	0.164
AGCCCACC	-0.25
GGGAAAAA	0.215
ATCTGTGC	-0.106
ACAGCGCG	0.0329
CGAGGAGA	-0.133
AAGTCAGT	0.103
AGTAGATA	0.273
AGTAATGA	0.208
CGCGCCTC	-0.0504
GCCCGACC	-0.164
AAGGCAAG	-0.122
AGGAAGTC	-0.116
GCACGTGC	0.0341
GCTGGAAC	-0.149
ACACCAAA	0.161

Sequence	PBM E-score
AGGTAACC	-0.0195
CGGATTCC	-0.0288
AAGCACGA	0.114
CACGCCAC	-0.174
CAGAGGTC	-0.143
GAGGGCGA	-0.298
CTGATTCC	-0.117
GCATTTAC	0.0455
AATAGTTG	0.267
CCCGATCC	-0.199
CGTCACGC	-0.0139
AAAACAAA	0.242
TGGGTAAA	-0.0431
CCAAACGC	0.0129
ACGTCTCC	0.00491
GAGAAATC	0.209
GACTCCGA	0.0169
AATGGGAG	-0.0456
ACGTTGTG	-0.0771
